Measured values from publication PMC5438655.
No constants are given. Whether binding was seen depends on the method and setting. In cells and extracts the contact can be indirect. Some binding calls cover weakened binding; strength is not graded here. Where a sequence is shown, tags or fusion partners need not be part of it.

Experiments:
GST Raf-1 [1] = biological target: GST Raf-1 (UniProt P04049); assay: pull-down; GST pull-down with glutathione sepharose from lysates of HEK 293T cells co-expressing bait and prey; 0.5% NP-40, 150 mM NaCl, 10 mM HEPES; 3-4 hours at 4°C; western blot
GST N-Ras = GST N-Ras (UniProt P01111); assay: as above
GST Raf-1 [2] = biological target: GST Raf-1 (UniProt P04049); assay: FRET or BRET; TR-FRET on serially diluted lysates of HEK 293T cells co-expressing the GST-tagged and the Venus-Flag-tagged protein; anti-GST-Terbium antibody as donor, Venus as acceptor; FRET buffer 20 mM Tris pH 7.0, 0.01% Nonidet-P40, 50 mM NaCl

binding (GST Raf-1 [1]): binds | binding (GST N-Ras): binds | binding (GST Raf-1 [2]): binds
B1: Venus-Flag Aurora A (protein, UniProt O14965 1-403)
chain: MDRSKENCISGPVKATAPVGGPKRVLVTQQFPCQNPLPVNSGQAQRVLCPSNSSQRIPLQAQKLVSSHKPVQNQKQKQLQATSVPHPVSRPLNNTQKSKQPLPSAPENNPEEELASKQKNEESKKRQWALEDFEIGRPLGKGKFGNVYLAREKQSKFILALKVLFKAQLEKAGVEHQLRREVEIQSHLRHPNILRLYGYFHDATRVYLILEYAPLGTVYRELQKLSKFDEQRTATYITELANALSYCHSKRVIHRDIKPENLLLGSAGELKIADFGWSVHAPSSRRTTLCGTLDYLPPEMIEGRMHDEKVDLWSLGVLCYEFLVGKPPFEANTYQETYKRISRVEFTFPDFVTEGARDLISRLLKHNPSQRPMLREVLEHPWITANSSKPSNCQNKESASKQS
